No constants are given. Whether binding was seen depends on the method and setting. Binding seen in cells or lysates may run through a third protein. Some binding calls cover weakened binding; strength is not graded here.
What was measured:
[1] = target: phosphorylated cAMP response element-binding protein (MMQ cells) (rat (endogenous in MMQ)) (UniProt P15337); assay: co-IP; anti-p-CREB antibody on Protein A/G magnetic beads, 4 °C for 16 h, lysates of MMQ and AtT-20 cells (IP lysis buffer with phosphatase inhibitors); cells treated with BRC (10 μM) or CAB (25 μM) for 48 h; Western blot for CBP and p300
[2] = target: phosphorylated cAMP response element-binding protein (AtT-20 cells) (mouse (endogenous in AtT-20)) (UniProt Q01147); assay: as above

Amino acid sequences for entries named in this document (tags omitted).
UniProt P15337: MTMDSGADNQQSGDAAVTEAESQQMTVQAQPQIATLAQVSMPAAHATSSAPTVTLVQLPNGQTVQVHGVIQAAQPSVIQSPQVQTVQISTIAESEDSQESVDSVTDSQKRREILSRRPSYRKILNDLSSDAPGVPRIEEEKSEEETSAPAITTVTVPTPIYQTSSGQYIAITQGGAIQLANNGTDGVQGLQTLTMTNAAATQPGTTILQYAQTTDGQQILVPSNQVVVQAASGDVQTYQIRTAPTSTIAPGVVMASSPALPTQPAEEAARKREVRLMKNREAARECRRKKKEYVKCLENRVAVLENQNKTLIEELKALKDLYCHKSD
UniProt Q01147: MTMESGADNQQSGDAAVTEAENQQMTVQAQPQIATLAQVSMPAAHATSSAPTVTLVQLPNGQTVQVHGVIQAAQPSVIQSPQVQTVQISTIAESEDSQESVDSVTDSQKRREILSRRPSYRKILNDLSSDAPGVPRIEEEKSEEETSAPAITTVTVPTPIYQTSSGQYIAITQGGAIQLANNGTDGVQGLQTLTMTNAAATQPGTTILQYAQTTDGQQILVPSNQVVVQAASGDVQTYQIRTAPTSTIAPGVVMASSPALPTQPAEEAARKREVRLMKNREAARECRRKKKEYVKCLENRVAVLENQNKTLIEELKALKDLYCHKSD
UniProt Q6JHU9: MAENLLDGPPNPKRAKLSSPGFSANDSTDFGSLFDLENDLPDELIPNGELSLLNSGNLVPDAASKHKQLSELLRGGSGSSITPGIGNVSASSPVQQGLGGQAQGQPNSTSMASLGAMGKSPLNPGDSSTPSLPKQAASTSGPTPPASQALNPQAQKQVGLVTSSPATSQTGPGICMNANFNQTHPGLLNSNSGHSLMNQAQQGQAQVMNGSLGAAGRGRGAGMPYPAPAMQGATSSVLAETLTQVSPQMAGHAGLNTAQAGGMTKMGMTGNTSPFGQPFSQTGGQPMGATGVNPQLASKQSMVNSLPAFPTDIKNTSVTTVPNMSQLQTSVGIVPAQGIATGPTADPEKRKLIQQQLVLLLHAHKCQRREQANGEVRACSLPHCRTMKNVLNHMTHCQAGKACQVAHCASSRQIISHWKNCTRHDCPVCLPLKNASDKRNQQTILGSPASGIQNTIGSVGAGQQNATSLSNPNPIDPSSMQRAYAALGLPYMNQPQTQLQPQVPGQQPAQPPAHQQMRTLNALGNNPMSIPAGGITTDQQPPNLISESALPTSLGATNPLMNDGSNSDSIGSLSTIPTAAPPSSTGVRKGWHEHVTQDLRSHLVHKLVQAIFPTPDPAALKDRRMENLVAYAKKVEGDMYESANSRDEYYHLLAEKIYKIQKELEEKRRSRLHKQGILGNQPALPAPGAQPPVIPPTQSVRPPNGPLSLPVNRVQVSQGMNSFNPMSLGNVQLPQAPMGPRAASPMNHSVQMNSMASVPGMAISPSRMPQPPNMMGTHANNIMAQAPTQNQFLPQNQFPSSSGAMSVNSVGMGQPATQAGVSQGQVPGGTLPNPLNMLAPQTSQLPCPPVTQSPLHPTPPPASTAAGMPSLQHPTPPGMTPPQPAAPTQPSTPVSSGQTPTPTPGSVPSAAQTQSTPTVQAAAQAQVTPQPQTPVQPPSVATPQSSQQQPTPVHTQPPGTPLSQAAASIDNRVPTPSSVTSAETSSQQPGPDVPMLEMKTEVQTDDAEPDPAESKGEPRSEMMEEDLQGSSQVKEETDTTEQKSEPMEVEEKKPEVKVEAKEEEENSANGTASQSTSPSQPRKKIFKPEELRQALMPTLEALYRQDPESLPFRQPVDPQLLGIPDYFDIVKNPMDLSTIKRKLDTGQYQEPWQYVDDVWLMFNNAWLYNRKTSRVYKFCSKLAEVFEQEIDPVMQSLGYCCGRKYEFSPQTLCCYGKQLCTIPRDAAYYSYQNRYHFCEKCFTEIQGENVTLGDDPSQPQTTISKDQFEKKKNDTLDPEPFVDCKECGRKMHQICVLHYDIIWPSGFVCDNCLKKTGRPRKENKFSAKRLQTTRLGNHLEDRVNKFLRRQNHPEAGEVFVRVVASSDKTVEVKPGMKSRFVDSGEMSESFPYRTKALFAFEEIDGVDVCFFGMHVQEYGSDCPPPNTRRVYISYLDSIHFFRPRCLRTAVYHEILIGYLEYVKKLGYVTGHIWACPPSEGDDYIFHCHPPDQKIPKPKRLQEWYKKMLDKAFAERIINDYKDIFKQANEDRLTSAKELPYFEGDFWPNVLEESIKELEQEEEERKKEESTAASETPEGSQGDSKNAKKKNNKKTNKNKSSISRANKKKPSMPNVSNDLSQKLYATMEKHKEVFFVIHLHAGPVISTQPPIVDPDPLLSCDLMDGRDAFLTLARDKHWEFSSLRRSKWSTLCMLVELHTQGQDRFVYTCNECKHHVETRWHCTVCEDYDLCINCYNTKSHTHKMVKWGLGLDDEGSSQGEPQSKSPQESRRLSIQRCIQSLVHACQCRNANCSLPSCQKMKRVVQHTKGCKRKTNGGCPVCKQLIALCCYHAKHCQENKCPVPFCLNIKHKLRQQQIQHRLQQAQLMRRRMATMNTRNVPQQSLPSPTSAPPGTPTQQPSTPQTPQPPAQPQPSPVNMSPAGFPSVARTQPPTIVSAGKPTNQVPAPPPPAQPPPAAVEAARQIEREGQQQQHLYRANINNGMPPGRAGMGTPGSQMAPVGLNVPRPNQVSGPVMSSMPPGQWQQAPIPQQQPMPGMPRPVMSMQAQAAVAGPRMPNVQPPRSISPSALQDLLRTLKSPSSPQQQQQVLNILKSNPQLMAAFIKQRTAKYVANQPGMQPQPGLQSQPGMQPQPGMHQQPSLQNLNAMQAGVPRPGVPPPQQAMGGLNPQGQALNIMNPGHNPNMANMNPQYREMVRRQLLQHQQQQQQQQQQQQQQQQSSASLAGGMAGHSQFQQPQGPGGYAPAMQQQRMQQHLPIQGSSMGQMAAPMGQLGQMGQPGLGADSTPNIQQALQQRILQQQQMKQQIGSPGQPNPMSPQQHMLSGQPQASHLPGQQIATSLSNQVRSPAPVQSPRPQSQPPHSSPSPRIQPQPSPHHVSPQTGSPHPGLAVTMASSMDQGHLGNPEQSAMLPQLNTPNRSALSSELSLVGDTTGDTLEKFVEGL
UniProt P45481: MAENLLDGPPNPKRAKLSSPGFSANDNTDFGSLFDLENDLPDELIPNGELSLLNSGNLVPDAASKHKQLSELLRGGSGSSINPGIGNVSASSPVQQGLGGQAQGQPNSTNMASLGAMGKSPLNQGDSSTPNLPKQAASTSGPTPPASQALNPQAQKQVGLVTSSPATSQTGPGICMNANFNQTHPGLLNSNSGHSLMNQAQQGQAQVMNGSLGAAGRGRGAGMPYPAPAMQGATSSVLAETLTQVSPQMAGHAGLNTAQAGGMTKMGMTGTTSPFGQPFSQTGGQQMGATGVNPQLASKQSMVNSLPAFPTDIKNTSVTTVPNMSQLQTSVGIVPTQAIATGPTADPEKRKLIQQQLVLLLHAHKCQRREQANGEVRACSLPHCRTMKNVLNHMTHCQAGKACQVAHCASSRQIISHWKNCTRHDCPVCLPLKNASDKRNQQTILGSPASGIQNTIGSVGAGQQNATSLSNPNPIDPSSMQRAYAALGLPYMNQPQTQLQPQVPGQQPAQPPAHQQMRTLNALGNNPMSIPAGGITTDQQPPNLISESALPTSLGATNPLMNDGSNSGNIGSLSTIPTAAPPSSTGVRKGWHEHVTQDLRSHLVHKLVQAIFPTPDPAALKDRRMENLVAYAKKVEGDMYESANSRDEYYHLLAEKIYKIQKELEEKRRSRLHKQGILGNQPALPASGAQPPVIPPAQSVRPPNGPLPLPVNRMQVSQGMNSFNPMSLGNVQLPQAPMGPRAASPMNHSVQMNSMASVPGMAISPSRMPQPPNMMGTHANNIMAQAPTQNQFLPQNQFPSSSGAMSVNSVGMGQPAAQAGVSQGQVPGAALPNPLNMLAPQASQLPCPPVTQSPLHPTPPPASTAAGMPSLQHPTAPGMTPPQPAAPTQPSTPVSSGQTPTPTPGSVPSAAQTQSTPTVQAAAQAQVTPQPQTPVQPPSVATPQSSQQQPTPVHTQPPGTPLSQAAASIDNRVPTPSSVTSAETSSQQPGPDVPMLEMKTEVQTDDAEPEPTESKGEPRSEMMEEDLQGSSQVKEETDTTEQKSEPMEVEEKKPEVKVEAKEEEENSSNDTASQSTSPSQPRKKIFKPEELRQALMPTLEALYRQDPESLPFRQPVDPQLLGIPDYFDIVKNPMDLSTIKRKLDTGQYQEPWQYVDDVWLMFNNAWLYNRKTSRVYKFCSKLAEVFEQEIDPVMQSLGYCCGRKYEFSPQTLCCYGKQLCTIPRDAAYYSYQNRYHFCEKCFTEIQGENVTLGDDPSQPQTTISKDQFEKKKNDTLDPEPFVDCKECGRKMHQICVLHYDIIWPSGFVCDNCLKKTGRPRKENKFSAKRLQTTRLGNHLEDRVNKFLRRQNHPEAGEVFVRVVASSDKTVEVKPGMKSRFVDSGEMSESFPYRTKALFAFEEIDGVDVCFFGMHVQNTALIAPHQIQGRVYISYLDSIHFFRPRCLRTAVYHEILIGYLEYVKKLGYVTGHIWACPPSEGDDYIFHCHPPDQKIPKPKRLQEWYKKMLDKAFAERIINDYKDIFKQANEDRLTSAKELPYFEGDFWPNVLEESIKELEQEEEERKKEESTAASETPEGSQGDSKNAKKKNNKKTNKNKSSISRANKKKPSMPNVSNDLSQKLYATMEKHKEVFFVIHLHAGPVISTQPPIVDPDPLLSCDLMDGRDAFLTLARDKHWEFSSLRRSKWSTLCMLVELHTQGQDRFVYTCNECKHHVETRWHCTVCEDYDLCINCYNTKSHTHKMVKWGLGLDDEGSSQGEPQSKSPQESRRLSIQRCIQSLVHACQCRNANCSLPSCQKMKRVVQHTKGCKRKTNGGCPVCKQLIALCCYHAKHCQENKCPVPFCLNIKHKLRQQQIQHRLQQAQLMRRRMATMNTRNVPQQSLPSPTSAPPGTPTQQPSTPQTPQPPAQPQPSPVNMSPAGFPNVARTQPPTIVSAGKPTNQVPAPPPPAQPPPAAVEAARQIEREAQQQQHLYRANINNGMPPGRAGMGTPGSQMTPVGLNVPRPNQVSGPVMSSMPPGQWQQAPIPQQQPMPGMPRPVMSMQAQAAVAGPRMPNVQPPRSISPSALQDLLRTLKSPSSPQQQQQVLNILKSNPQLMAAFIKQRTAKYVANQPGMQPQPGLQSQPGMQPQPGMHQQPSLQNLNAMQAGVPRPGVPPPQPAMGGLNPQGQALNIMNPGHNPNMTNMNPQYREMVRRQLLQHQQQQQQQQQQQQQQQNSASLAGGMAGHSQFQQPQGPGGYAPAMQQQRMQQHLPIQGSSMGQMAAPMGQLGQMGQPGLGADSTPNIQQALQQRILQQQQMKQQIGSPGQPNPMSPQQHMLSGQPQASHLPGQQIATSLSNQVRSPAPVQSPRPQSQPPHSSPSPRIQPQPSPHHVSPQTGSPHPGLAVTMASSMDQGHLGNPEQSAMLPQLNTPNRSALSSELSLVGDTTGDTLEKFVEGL

binding [1]	binding [2]	Substance
binds	–	CREB-binding protein (MMQ cells) (from UniProt Q6JHU9 1-2442)
–	binds	CREB-binding protein (AtT-20 cells) (from UniProt P45481 1-2441)

From PMC11641041
